Data from PubChem BioAssay AID624297 (National Center for Advancing Translational Sciences (NCATS), 2012).
In all, about 340,000 compounds went through this assay and about 6,200 (1.8%) were called active. Inconclusive results, whose numbers are uncertain, are shown with a selection of clear calls. The call rests on the fitted dose curve; in most records, active means well fitted activation curve with a large enough effect; inconclusive means small, poorly fitted or top-dose-only effect; inactive means no such curve, though single readings can be large or run the other way. Potencies beside an inconclusive call are fits to weak or partial responses and may not hold up.

Assay: A quantitative high throughput screen for small molecules that induce DNA re-replication in SW480 colon adenocarcinoma cells. Further: nearly all actives have a fitted effect of over 55% in size. On re-replication activation: % of control where 0% means no effect.
Settings: Hoechst DNA content imaging, 48 h; re-replication activation: at 46.1 µM (top of the series)
How it was run: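 First, 250 cells per well were seeded. Next, compound or vehicle (23 nL) was pinned in, plates sat 48 hr at 37 C. Finally Hoechst was added for 40 min before fluorescence scanning.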
Potency means the concentration at half of the fitted maximal effect.

Compound | Potency | re-replication activation
Cc1ccc(-n2c(O)c(/C=N/NC(=O)C3COc4ccccc4O3)c3ccccc3c2=O)cc1 (configuration not stated) | inconclusive: 29.1 µM [activator, single point] | 
CC1(C)Cc2c(sc(NC(=O)COc3cccc4ccccc34)c2C#N)C(C)(C)N1 | inconclusive: 0.82 µM [activator, full curve] | 
Cc1ccc(-c2nnc(N3CCN(C(=O)c4ccco4)CC3)c3ccccc23)cc1 | inactive | 
C=CCNc1nc(N2CCOCC2)c(C#N)c2c1CN(C)CC2 | inactive | 
CC(C)C(=O)NCCn1ccc2ccccc21 | inactive | 
O=C(NCc1cccc(F)c1)C1CCC(=O)N(C2CCCC2)C1 (configuration not stated) | inconclusive: 29.1 µM [activator, single point] | 
COc1ccc(C2CC(c3cccs3)=NN2C(=O)CSc2nc(=O)n3ccc(C)cc3n2)cc1 (configuration not stated) | inconclusive: 32.6 µM [activator, partial curve, poor fit] | 
CCc1ccc(NC(=O)c2c(Cl)nc(C)c(Cl)c2C)cc1 | inconclusive: 18.4 µM [activator, partial curve] | 
COc1cc(C(=O)COC(=O)c2ccc([N+](=O)[O-])o2)cc(OC)c1OC | inactive | 
COc1ccccc1NC(=O)c1cc(C(=O)Nc2ccccc2OC)n(C)n1 | inconclusive: 29.1 µM [activator, single point] | 
COC(=O)C1=C(C)NC(C)=C(C(=O)OC)C1c1ccc(-c2cccc(Cl)c2Cl)o1 | inactive | 
CCN(CC)S(=O)(=O)c1ccc(C(=O)Nc2nnc(CSC)o2)cc1 | inactive | 
Cc1ccc(C(=O)COc2nc(C)cc(C)c2C#N)cc1 | inconclusive: 18.4 µM [activator, single point] | 
CCOC(=O)N1CCN(C(=O)CSCc2ccc(C)cc2)CC1 | active: 0.184 µM | 
Cc1c(C(=O)OCC(=O)N2C(C)CCCC2C)oc2ccccc12 (configuration not stated) | inactive | 
CCc1cccc(C)c1Nc1nc2ccccc2n2cnnc12 | inactive | 
O=C(NNC(=O)c1ccc(S(=O)(=O)N2CCCCC2)cc1)c1ccc(F)cc1 | inactive | 
CC1CCN(S(=O)(=O)c2cn(CC(=O)Nc3cccc(C#N)c3)cn2)CC1 | inconclusive: 3.55 µM [activator, full curve, poor fit] | 
O=C1C2CCCCN2C(=O)N1CCCCN1CCN(c2ccc(F)cc2)CC1 (configuration not stated) | inconclusive: 0.231 µM [activator, full curve, poor fit] | 
CCOC(=O)c1c(C)[nH]c(C)c1C(=O)COC(=O)c1cccc(S(=O)(=O)NC)c1 | inconclusive: 23.1 µM [activator, partial curve, poor fit] | 
CCOc1ccccc1C1NC(=O)NC(C)=C1C(=O)OC1CCCCC1 (configuration not stated) | inconclusive: 32.6 µM [activator, partial curve, poor fit] | 
COc1c(CC=C(C)C)cc(C2CC(=O)c3c(O)cc(O)cc3O2)cc1CC=C(C)C (configuration not stated) | inactive | 
Cn1c(=Nc2ccc(N3CCOCC3)cc2)ccc2ccccc21 | inactive | 
O=c1oc2c3c4c(cc2c2c1CCC2)OCCN4CCC3 | inconclusive: 2.59 µM [activator, partial curve] | 

6 records picked at random from the list so far:
Compound | Potency | re-replication activation
CCOC(=O)N1CCN(C(=O)CSCc2ccc(C)cc2)CC1 | active: 0.184 µM | 
O=C(NNC(=O)c1ccc(S(=O)(=O)N2CCCCC2)cc1)c1ccc(F)cc1 | inactive | 
Cc1ccc(-n2c(O)c(/C=N/NC(=O)C3COc4ccccc4O3)c3ccccc3c2=O)cc1 (configuration not stated) | inconclusive: 29.1 µM [activator, single point] | 
Cc1ccc(C(=O)COc2nc(C)cc(C)c2C#N)cc1 | inconclusive: 18.4 µM [activator, single point] | 
Cc1ccc(-c2nnc(N3CCN(C(=O)c4ccco4)CC3)c3ccccc23)cc1 | inactive | 
O=c1oc2c3c4c(cc2c2c1CCC2)OCCN4CCC3 | inconclusive: 2.59 µM [activator, partial curve] | 

Further structures.

Compound | Potency | re-replication activation
COC(=O)C(=O)C/C(=N/Nc1ncnc2ccccc12)c1ccc(Cl)cc1 | inactive | 
Oc1c(C(Nc2cccc(C(F)(F)F)c2)c2cccnc2)ccc2cccnc12 (configuration not stated) | inconclusive: 29.1 µM [activator, single point] | 
COc1ccc(NC(=O)N2CCC(CO)(CC3CCCCO3)CC2)c(OC)c1 (configuration not stated) | inconclusive: 0.651 µM [activator, full curve, poor fit] | 
CCC1CN(C(=O)NCc2cccc(OC)c2)c2ccccc2O1 (configuration not stated) | inactive | 
CC(=O)c1nn(-c2ccccc2)cc1C(=O)c1cccc(Br)c1 | inconclusive: 0.92 µM [activator, full curve, poor fit] | 
Cc1cccc(/C=N/NC(=O)c2cc3c(s2)-c2ccccc2CC3)c1 |  | inconclusive: 106% [activator]
Oc1ccc(C=Nc2ccc(N3CCOCC3)cc2)c(O)c1 | inconclusive: 2.31 µM [activator, full curve, poor fit] | 
COc1ccc(Oc2nc(C)cc(C)c2S(=O)(=O)c2ccc(C)cc2)cc1 | inactive | 
CCCCn1c(N)c(N(CC(C)C)C(=O)c2ccc(S(=O)(=O)N3CCC(C)CC3)cc2)c(=O)[nH]c1=O | inactive | 
Nc1nnc(SCCCC(=O)c2ccccc2)s1 | inconclusive: 29.1 µM [activator, single point] | 
CCOC(=O)c1cc2c(=O)n3ccccc3nc2n(Cc2ccco2)c1=NC(=O)c1ccccc1OCC | inactive | 
CC(=O)OC(C#CCN1CCOCC1)c1ccccc1 (configuration not stated) | inactive | 
Cc1ccc(OCC(O)CN2CCN(Cc3ccc4c(c3)OCO4)CC2)cc1C (configuration not stated) | inconclusive: 23.1 µM [activator, partial curve, poor fit] | 
CC(=O)N1c2ccc(S(=O)(=O)NCCC(=O)NCc3ccc(N(C)C)cc3)cc2CC1C (configuration not stated) | inconclusive: 25.9 µM [activator, single point] | 
COc1ccc(C2=NOC(C(=O)NCc3cccs3)C2)cc1OC (configuration not stated) | active: 5.17 µM | 
COc1ccc(Cl)cc1NC(=O)CSc1nc(Nc2ccccc2)nc(N2CCOCC2)n1 | inconclusive: 29.1 µM [activator, single point] | 
COc1cc(C(=O)NCCOc2ccc(Cl)cc2)ccc1OCc1c(C)noc1C | inconclusive: 32.6 µM [activator, partial curve, poor fit] | 
CCc1nonc1NC(=O)COc1cc(C)c(Cl)c(C)c1 | inactive | 
CC(C)(C)OC(=O)NOCC(=O)N(CC(=O)c1ccccc1)Cc1ccccc1 | inconclusive: 0.0366 µM [activator, partial curve, poor fit] | 
CCCCNC(=O)N1CCN(C(c2ccccc2)c2ccccc2)CC1 | inactive | 
CSCC[C@H](NC(=O)N1C[C@H]2C[C@@H](C1)c1cccc(=O)n1C2)C(=O)Nc1ccc(NC(C)=O)cc1 | inconclusive: 6.51 µM [activator, single point] | 
O=C(N/N=C/c1ccccn1)c1cc(C2CC2)nc2ccccc12 | inconclusive: 29.1 µM [activator, single point] | 
Cn1ncc2c(O/N=C(\N)c3ccc(C(C)(C)C)cc3)ncnc21 | active: 9.2 µM | 
O=C(Nc1cccnc1)c1cccc(S(=O)(=O)N2CCCC2)c1 | inconclusive: 6.51 µM [activator, single point] | 

Compound | Potency | re-replication activation
Cc1ccc(NC(=O)c2nnn(CC(=O)Nc3ccccc3)c2N)cc1C | inconclusive: 0.146 µM [activator, full curve, poor fit] | 
O=C(c1ccncc1)N1CCN(S(=O)(=O)c2ccc3ccccc3c2)CC1 |  | inconclusive: 31.4% [activator]
CCN1CCN(S(=O)(=O)c2ccc(Cl)c(C(=O)NCCc3ccccc3)c2)CC1 | active: 14.6 µM | 
COc1ccc2c(c1)NC1(O)c3ccccc3C(=O)C21O (configuration not stated) | inconclusive: 4.61 µM [activator, partial curve, poor fit] | 
CC1=[N+](C)c2c(ccc3cccnc23)C1(C)C | inconclusive: 20.6 µM [activator, single point] | 
CCOC(=O)CSc1nnc(NC(=O)c2ccc3c(c2)OCO3)s1 | inactive | 
N#C/C(=C\c1ccc(-c2ccccc2[N+](=O)[O-])o1)C(=O)Nc1nc(-c2cccs2)cs1 | inactive | 
COc1ccc(NC(=O)CN(C)C(=O)CCNC(=O)Nc2ccccc2)cc1 | inactive | 
COc1ccccc1CNC(=O)COc1cc2c(c3oc(=O)cc(C)c13)CCC(C)(C)O2 | inconclusive: 18.4 µM [activator, single point] | 
COC(=O)C1=C(C)NC(=O)NC1c1ccc(-c2ccccc2Cl)o1 (configuration not stated) | inconclusive: 29.1 µM [activator, single point] | 
CCCCNCCOCCOc1ccc(Cl)cc1Br | inconclusive: 29.1 µM [activator, single point] | 
COCCNC(=O)CC(=O)N/N=C/c1cccc(C(=O)OC)c1 | inactive | 
COCCNC(=S)Nc1ccc(Cl)c(Cl)c1 | inactive | 
Nc1nnc(CSCc2cccc(Br)c2)s1 | inconclusive: 0.58 µM [activator, partial curve, poor fit] | 
COc1cc(C(=O)NCCOc2ccc(F)cc2)c(Br)c(OC)c1OC | inconclusive: 5.8 µM [activator, partial curve, poor fit] | 
[O-][n+]1cccc2c(Br)cc(Br)c(O)c21 | inactive | 
COc1cc(NC(=O)c2cccc(Cl)c2)c(OC)cc1NC(=O)CN1CCCCC1 | inactive | 
O=C(O)c1ccccc1N(Cc1ccccc1)C(=O)CO/N=C/c1ccccc1 | inconclusive: 3.26 µM [activator, partial curve, poor fit] | 
CCOC(=O)c1cc(-c2ccccc2)sc1NC(=O)c1cc(OC)c(OC)c(OC)c1 | inactive | 
O=c1c([N+](=O)[O-])c(NC2CCCCC2)c2ccccc2n1-c1ccccc1 | inconclusive: 7.31 µM [activator, partial curve, poor fit] | 
Cc1cc(=O)n2c(C(=O)Nc3ccc(C)c(C)c3)c(C(=O)Nc3ccccc3)sc2n1 | inconclusive: 25.9 µM [activator, single point] | 
COc1ccc(NC(=O)/C(C#N)=C/c2c(C)nn(-c3ccc(F)cc3)c2Cl)cc1OC | inconclusive: 29.1 µM [activator, single point] | 
COc1ccc(NC(=O)c2cc3ccccc3cc2O)cc1 | inconclusive: 20.6 µM [activator, single point] | 
COc1ccc(C(=O)NNC2=Nc3cccc4cccc2c34)cc1 | inactive | 
